In patent US6013626A (priority 1995, dated 2000):

Test: general procedure: solution-phase peptide synthesis; DCC/DMAP; FDPP (macrolactamization)
Conditions: late stage modification step

Going from Cryptophycin 52 to Cryptophycin 53, the step yield falls from 48% to 25%.

First: Cryptophycin 55
Second: Cryptophycin 61
The step yield of the first is higher: 48% for the first, 37% for the second.

Work on Cryptophycin 56 yielded a step yield of 44% yield.
